Data taken from patent publication US20210356472A1, “METHODS AND COMPOSITIONS FOR DETECTION AND VISUALIZATION OF OXIDATIVE STRESS-INDUCED CARBONYLATION IN CELLS” (The Research Foundation for The State University of New York, priority 2020, published 2021).

Experiment: Limit of detection of TFCZ in A549 cell lysate
Settings: for limit of detection (LOD): in cell lysate of A549 lung cancer cells

Structure (SMILES) | limit of detection (LOD) | limit of detection, fold lower than BzCH (compared with BzCH)
CCC=NNc1ccc2c(C(F)(F)F)cc(=O)oc2c1 [TFCZ, 7-(2-Propylidenehydrazinyl)-4-(trifluoromethyl)-2H-chromen-2-one] | ~89 nM | 
NNc1ccc2c(C(F)(F)F)cc(=O)oc2c1 [TFCH, 4-Trifluoromethyl-7-hydrazinyl-2H-chromen-2-one] | about 89 nM | about 10 fold
